The text below walks through data of publication PMC7029851, “Antibacterial activity of novel dual bacterial DNA type II topoisomerase inhibitors” (PLoS ONE, 2020).

SMILES strings stand for the structures.

The data set concerns S. aureus ATCC BAA-1720 mutants. Kind of data set: Characterization of resistant mutants (sequencing, growth rate). The format is cell-based, Staphylococcus aureus. The note with it: for Reduction of bacterial growth rate of resistant mutant (fitness cost): S. aureus ATCC BAA-1720 mutant vs wild type; for Point mutation in resistant mutant: S. aureus ATCC BAA-1720 mutant with highest MIC increase, gyrA, gyrB, grlA, grlB sequenced.

Take `Cl.N#Cc1ccc2ccc(=O)n([C@H]3CC[C@H](NCc4cc5c(=O)oc6ccc(F)cc6c5[nH]4)CC3)c2c1` [Compound 2, 1-(trans-4-{[(8-fluoro-4-oxo-1,4-dihydro[1]benzopyrano[4,3-b]pyrrol-2-yl)methyl]amino}cyclohexyl)-2-oxo-1,2-dihydroquinoline-7-carbonitrile hydrochloride]: the “Reduction of bacterial growth rate of resistant mutant (fitness cost)” value was determined as 30% and the “Point mutation in resistant mutant” value is “position 44 in gyrA subunit, outside of the QRDR, causing a proline to be replaced with a leucine residue”.
For `O=C1COc2ncc(F)cc2N1[C@H]1CC[C@H](NCc2cc3c(=O)oc4ccc(F)cc4c3[nH]2)CC1` [Compound 1, 8-fluoro-2-({[trans-4-(7-fluoro-2-oxo-2,3-dihydro-1H-pyrido[2,3-b][1,4]oxazin-1-yl)cyclohexyl]amino}methyl)[1]benzopyrano[4,3-b]pyrrol-4(1H)-one] the same measures were 55% and “point mutation in gyrB resulting in the replacement of a proline at amino acid position 456 by leucine”.
